{"source": "PubChem BioAssay AID504791 (Drosophila RNAi Screening Center, 2011)", "aim": "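Genes whose knock-down strengthens or weakens small-RNA reporter silencing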 (primary screen)", "cells": "Drosophila S2-derived reporter cells", "reagents": "long dsRNA against Drosophila genes, about 150-250 ng dsRNA per well (siRNA assay); about 80-120 ng (miRNA assay)", "timing": "about 5 days (siRNA assay); about 4 days (miRNA assay)", "treatment": "copper sulfate induction of reporters: 25 µM (siRNA assay); 200 mM stated (miRNA assay), 1-2 days before reading", "measured": "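Per-well ratio of Renilla over firefly light, expressed relative to that plate's average ratio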", "units": "stable assay Renilla, run 1 in luminescence; stable assay firefly, run 1 in luminescence", "active means": "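First-pass picks had plate-scaled ratios over 1.5 for the siRNA assay, over 1.6 for the miRNA assay, or under 0.6; two distinct dsRNAs had to score alike on retest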", "note": "The screen tested about 23,000 reagents; shown is a random part of those with a known target gene and a result. Over the whole deposit, 199 (0.86%) are marked active. 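Plate-scaled ratios behind the calls are not deposited; printed light signals are raw; many rows marked increased or decreased are still called inactive.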 Entries without a mark were called inactive. Not given: the direction of the score."}
{"target":"wwk","DRSC id":"DRSC01941","stable assay Renilla, run 1":7530,"stable assay firefly, run 1":4.44e5}
{"target":"eIF2D","DRSC id":"DRSC13916","stable assay Renilla, run 1":5574,"stable assay firefly, run 1":4.38e5}
{"target":"Mal-A1","DRSC id":"DRSC07461","stable assay Renilla, run 1":6914,"stable assay firefly, run 1":3.46e5}
{"target":"Lnk","DRSC id":"DRSC16729","stable assay Renilla, run 1":8237,"stable assay firefly, run 1":4.80e5}
{"target":"CG31959 (retired record)","DRSC id":"DRSC22912","stable assay Renilla, run 1":2364,"stable assay firefly, run 1":2.50e5}
{"target":"Lst8","DRSC id":"DRSC18262","stable assay Renilla, run 1":7982,"stable assay firefly, run 1":5.67e5}
{"target":"CG31076","DRSC id":"DRSC16017","stable assay Renilla, run 1":8301,"stable assay firefly, run 1":4.06e5}
{"target":"CG7632","DRSC id":"DRSC11842","stable assay Renilla, run 1":6499,"stable assay firefly, run 1":5.05e5}
{"target":"TM9SF4","DRSC id":"DRSC01888","stable assay Renilla, run 1":7364,"stable assay firefly, run 1":1.11e6}
{"target":"TM9SF4","DRSC id":"DRSC02537","stable assay Renilla, run 1":7583,"stable assay firefly, run 1":3.92e5}
{"target":"h-cup","DRSC id":"DRSC15973","stable assay Renilla, run 1":8143,"stable assay firefly, run 1":4.89e5}
{"target":"CG2059","DRSC id":"DRSC18203","stable assay Renilla, run 1":5974,"stable assay firefly, run 1":3.51e5}

Copied from the list.
For “stable assay firefly, run 1”, CG7632 [DRSC11842] reads 5.05e5
eIF2D [DRSC13916], stable assay firefly, run 1 = 4.38e5
